Measurements from the supplement of paper PMC12823440, “Inhibitors supercharge kinase turnover through native proteolytic circuits” (Nature, 2025).
Structures can show the parent of a compound that is named as a salt. The list shows a part of the results. Hit calls seldom repeat between salt and free forms of one compound.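 In K562 cells expressing nanoluciferase-fused kinases, luminescence was recorded at 4 h intervals between 2 and 18 h, normalized as percent of control with DMSO at 100% and a positive control at 0%. A significant (2 sigma) signal drop marks a time point as decreased. The authors' rule for a hit is not shown and takes in more than the number of time points.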

Amino acid sequences for entries named in this document (tags omitted).
UniProt P09619, whole entry: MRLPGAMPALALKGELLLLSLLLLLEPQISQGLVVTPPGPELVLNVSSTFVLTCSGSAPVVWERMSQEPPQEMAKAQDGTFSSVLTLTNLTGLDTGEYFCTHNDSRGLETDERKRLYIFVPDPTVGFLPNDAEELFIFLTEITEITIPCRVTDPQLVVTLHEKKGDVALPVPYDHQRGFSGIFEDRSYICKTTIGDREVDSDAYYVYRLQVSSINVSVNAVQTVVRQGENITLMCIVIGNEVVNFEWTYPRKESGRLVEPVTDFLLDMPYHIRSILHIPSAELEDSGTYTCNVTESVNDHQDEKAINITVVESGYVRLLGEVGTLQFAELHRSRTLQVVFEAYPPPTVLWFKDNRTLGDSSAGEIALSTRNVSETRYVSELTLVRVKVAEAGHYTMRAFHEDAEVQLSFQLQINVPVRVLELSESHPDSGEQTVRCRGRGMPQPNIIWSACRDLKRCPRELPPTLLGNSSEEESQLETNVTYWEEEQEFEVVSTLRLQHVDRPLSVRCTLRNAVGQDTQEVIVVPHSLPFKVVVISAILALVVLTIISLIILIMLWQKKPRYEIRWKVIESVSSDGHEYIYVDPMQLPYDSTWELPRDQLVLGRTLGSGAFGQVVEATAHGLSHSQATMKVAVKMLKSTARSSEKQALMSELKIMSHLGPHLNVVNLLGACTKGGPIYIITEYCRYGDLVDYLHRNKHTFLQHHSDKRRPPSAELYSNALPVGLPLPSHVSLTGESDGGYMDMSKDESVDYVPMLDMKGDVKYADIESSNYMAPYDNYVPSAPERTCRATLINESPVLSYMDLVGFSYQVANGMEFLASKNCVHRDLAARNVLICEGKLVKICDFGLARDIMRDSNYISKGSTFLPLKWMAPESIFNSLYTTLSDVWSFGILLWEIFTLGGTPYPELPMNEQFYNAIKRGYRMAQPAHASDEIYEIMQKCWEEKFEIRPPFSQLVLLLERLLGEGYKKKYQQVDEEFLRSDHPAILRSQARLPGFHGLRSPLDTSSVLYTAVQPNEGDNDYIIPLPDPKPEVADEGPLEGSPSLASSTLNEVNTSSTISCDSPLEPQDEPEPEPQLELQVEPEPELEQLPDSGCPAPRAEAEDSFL

molecular target: PDGFRB (UniProt P09619); test: number of time points (of 5) at which kinase-Nluc abundance scored as decreased, DMSO-normalised (count); higher = more persistent destabilization; settings: K562; 2-18 h

| Compound | number of time points |
| --- | --- |
| Cc1cc(=O)oc2c(C=O)c(O)ccc12 (10 µM) | 0 |
| Nc1nc(F)nc2c1ncn2[C@@H]1O[C@H](CO)[C@@H](O)[C@@H]1O [Fludarabine] (10 µM) | 0 |
| CC(C)(C)c1cc(O)ccc1O (10 µM) | 0 |
| COc1ccc(Cl)c(Nc2nc3ccccc3nc2NS(=O)(=O)c2cccc(NC(=O)C(C)(C)N)c2)c1 [Pilaralisib] (10 µM) | 0 |
| Cc1ccc(CNc2ncnc3ccc(-c4ccc(CO)o4)cc23)o1 (10 µM) | 0 |
| C=CC(=O)Nc1cccc(Nc2nc(Nc3ccc(N4CCN(C(C)=O)CC4)cc3OC)ncc2C(F)(F)F)c1 [Rociletinib] (10 µM) | 0 |
| Nc1ncnc2c1c(-c1cccc(OCc3ccccc3)c1)cn2C1CC(CN2CCC2)C1 (stereo not drawn) (2.5 µM) | 0 |
| Oc1cc(O)c2cc(O)c(-c3cc(O)c(O)c(O)c3)[o+]c2c1 [Delphinidin (chloride)] (10 µM) | 0 |
| CCCS(=O)(=O)Nc1ccc(F)c(C(=O)c2c[nH]c3ncc(-c4ccc(Cl)cc4)cc23)c1F [Vemurafenib] (10 µM) | 0 |
| COCCNc1nc2ccc(C#CC3(O)CCCCC3)cc2n1-c1ccnc(N)n1 (10 µM) | 0 |
| CCC(C)N1c2ccccc2C(=O)N(C)c2cnc(Nc3ccc(C(=O)N4CCC(N5CCN(C)CC5)CC4)cc3OC)nc21 (stereo not drawn) (2.5 µM) | 0 |
| Cc1cc(CN2CCN(c3c(Br)cnc4nc(-c5ccc(N6CCN(C)CC6)cc5)[nH]c34)CC2)no1 (2.5 µM) | 0 |
| O=C(CSC1=NCCN1)NC1CCCCCC1 [ICCB-19 (hydrochloride)] (2.5 µM) | 0 |
| FC(F)(F)c1ccc(CNc2ccc(Cc3c[nH]c4ncccc34)cn2)cc1 (10 µM) | 0 |
| c1ccc(-c2[nH]ncc2-c2ccnc3ccccc23)nc1 (10 µM) | 0 |
| CC#CC(=O)N1CC[C@@H](n2c(=O)n(-c3ccc(Oc4ccccc4)cc3)c3c(N)ncnc32)C1 [Tirabrutinib (hydrochloride)] (10 µM) | 0 |
| CC1=C(C(=O)O)N2C(=O)[C@@H](NC(=O)[C@H](N)C3=CCC=CC3)[C@H]2SC1 [Cephradine] (10 µM) | 0 |
| Cn1cc(-c2ccc3nnc(Sc4ccc5ncccc5c4)n3n2)cn1 (10 µM) | 0 |
| CC(=O)c1c(C)cc2cccc(O)c2c1O [Nepodin] (10 µM) | 0 |

| Compound | number of time points |
| --- | --- |
| NCCNS(=O)(=O)c1cccc2c(Cl)cccc12 [A-3 (hydrochloride)] (10 µM) | 0 |
| N#Cc1c(C2CCNCC2)cc(-c2c(O)cccc2OCC2CC2)nc1N [ACHP (Hydrochloride)] (10 µM) | 0 |
| C[C@@H]1COCCN1c1cc(C2([S@@](C)(=N)=O)CC2)nc(-c2ccnc3[nH]ccc23)n1 [(S)-Ceralasertib] (10 µM) | 0 |
| NC(=O)c1nc(Nc2ccccc2)sc1NC(=O)C1CCCCC1 (10 µM) | 0 |
| Cc1cc(Nc2ncnc3ccc(NC4=NC(C)(C)CO4)cc23)ccc1Oc1ccn2ncnc2c1 [Tucatinib (hemiethanolate)] (2.5 µM) | 0 |
| Cc1ccc(C(=O)Nc2ccc(Oc3cc4cnn(C)c4cc3-c3cn[nH]c3)c(F)c2)c(=O)n1-c1ccc(F)cc1 [Merestinib dihydrochloride] (2.5 µM) | 0 |
| O=C1Nc2ccc(C(=O)c3ccco3)cc2C1=Cc1cc(Cl)c(O)c(Cl)c1 (2.5 µM) | 0 |
| C=CC(=O)Nc1cc(Nc2ncc(Cl)c(-c3c[nH]c4ccccc34)n2)c(OC)cc1N(C)CCN(C)C [Mutant EGFR inhibitor] (2.5 µM) | 0 |
| C[C@@H](c1ccc(-c2ccccc2)c(F)c1)c1cc(NC(=N)N2CCOCC2)on1 [Rimacalib] (10 µM) | 0 |
| Cn1nccc1Nc1nccc(-c2ccn([C@H](CO)c3ccc(Cl)c(F)c3)c(=O)c2)n1 [Ravoxertinib hydrochloride] (10 µM) | 0 |
| Oc1cc2c(cc1O)C(Cc1cccc3ccccc13)NCC2 (stereo not drawn) (10 µM) | 0 |
| O=C1N[C@@H](Cc2c[nH]c3ccccc23)C(=O)N2CCC[C@@H]12 [Brevianamide F] (10 µM) | 0 |
| CCS(=O)(=O)Nc1ccc2[nH]c(O)c(C(=Nc3ccc(CN4CCCCC4)cc3)c3ccccc3)c2c1 [Hesperadin] (2.5 µM) | 0 |
| O=C1NC(=O)/C(=C/c2ccc3nccnc3c2)S1 (10 µM) | 0 |
| CNc1nc(Nc2ccc(C(=O)N3CCOCC3)cc2OC)nc2[nH]cc(Cl)c12 (2.5 µM) | 0 |
| CC#CC(=O)N1CC[C@@H](n2c(=O)n(-c3ccc(Oc4ccccc4)cc3)c3c(N)ncnc32)C1 [Tirabrutinib] (10 µM) | 0 |
| CCc1c(C(=O)NNC(=O)C(O)c2cc(F)cc(F)c2)ccc(O)c1C (stereo not drawn) (10 µM) | 0 |
| CNC(=O)c1ccc(C)c(-n2c(C)cc(OCc3ccc(F)cc3F)c(Br)c2=O)c1 (10 µM) | 0 |
| O=C(NOCC(O)CO)c1cc(Br)c(F)c(F)c1Nc1ccc(I)cc1F (stereo not drawn) (2.5 µM) | 0 |

Two entries drawn at random from those above, as already listed:

| Compound | number of time points |
| --- | --- |
| c1ccc(-c2[nH]ncc2-c2ccnc3ccccc23)nc1 (10 µM) | 0 |
| CC#CC(=O)N1CC[C@@H](n2c(=O)n(-c3ccc(Oc4ccccc4)cc3)c3c(N)ncnc32)C1 [Tirabrutinib (hydrochloride)] (10 µM) | 0 |
